Data taken from patent US8685976B2, “Cell adhesion promoting agent and method of promoting cell adhesion” (Kyoto University, priority 2008, dated 2014).

Assay: Isothermal titration calorimetry (ITC)
Type: binding
Settings: 100 mM NaCl, 25° C.; for n (no. of adhesamine per GAGs): 50 mM phosphate buffer (pH 6.0), 1% DMSO

Substance | n (no. of adhesamine per GAGs) | n (no. of adhesamine per oligosaccharides) (50 mM phosphate buffer, 1% (v/v) DMSO)
Heparan sulfate | 6.38 ± 0.49 | 
Heparin | 20.34 ± 2.53 | 20.34 ± 2.53
Keratan sulfate | 33.28 ± 3.2 | 
